# Test results reported in PubChem BioAssay AID662 (National Center for Advancing Translational Sciences (NCATS), 2007).
# The other results are listed elsewhere or left out. The main result of the screen is listed elsewhere. These columns were measured beside it and carry no call. Most of these compounds were active or inconclusive in the main read-out, so they are no random draw. The note in brackets gives the kind of curve behind each potency; many fits are weak.
# Assay: Cell signaling CRE-BLA (Fsk stim)
# Conditions: CHO CRE-bla reporter (cAMP response element driving beta-lactamase), forskolin EC10, beta-lactamase ratio; measured here: 460 nm blue channel
# Method in brief: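 Modulation of forskolin-driven signalling is measured in CHO cells carrying a CRE-controlled beta-lactamase reporter. Cells are stimulated with EC10 NKH 477 in the presence of titrated compound for 3 h at 37 °C, then loaded with CCF4 for 2 h at room temperature.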
row,SMILES,AC50
1,COC(=O)c1ccc(COc2nc(C)cc(C)c2C#N)o1,"1.58 µM [rising, partial curve]"
2,Oc1ccccc1O,"3.16 µM [falling, full curve]"
3,COc1ccccc1-c1nnc(Nc2nc3c(OC)cccc3s2)o1,"0.398 µM [rising, full curve]"
4,CCn1c(=N)c(C(=O)NCc2cccnc2)cc2c(=O)n3cccc(C)c3nc21,"15.8 µM [rising, single point]"
5,COc1cc2c(cc1OC)-c1cc(NCc3ccccn3)nc(=O)n1CC2,"6.31 µM [rising, partial curve]"
6,COc1ccc2[nH]cc(CCNc3nc(-c4ccoc4)nc4ccccc34)c2c1,"3.98 µM [rising, partial curve]"
7,CC1=Nc2ccccc2N=C(NC(=O)CSc2nnnn2-c2ccccc2)C1c1ccccc1 (configuration not stated),"12.6 µM [rising, partial curve, poor fit]"
8,COc1ccc(CN2CC(C(=O)NCCCN3CCOCC3)CC2=O)cc1 (configuration not stated),"25.1 µM [rising, single point]"
9,O=C(O)C1C2C=CC3(CN(C/C=C/c4ccccc4)C(=O)C13)O2 (configuration not stated),"0.00316 µM [falling, full curve, poor fit]"
10,FC(F)(F)c1ccccc1-n1ccnc1,"31.6 µM [falling, single point]"
11,CCC(=O)Nc1ccccc1N1CCN(S(C)(=O)=O)CC1,"0.631 µM [rising, single point]"
12,CCOC(=O)C1=C(C)Nc2ncnn2C1c1cc(Br)ccc1F (configuration not stated),"15.8 µM [rising, single point]"
13,Fc1ccc(-c2cc3nc(-c4ccccc4)cc(N4CCOCC4)n3n2)cc1,"10 µM [rising, partial curve]"
14,Nc1c(C(=O)NCc2ccco2)nnn1Cc1ccccc1,"10 µM [falling, partial curve, poor fit]"
15,Nc1cc(OC(=O)c2ccccc2Br)nn1S(=O)(=O)c1ccccc1,"10 µM [falling, partial curve]"
16,COc1ccccc1OCC(=O)N(Cc1nc(-c2ccc(Cl)cc2)no1)C(C)C,"25.1 µM [falling, single point]"
17,COc1ccc(CCNC(=O)C2CCCN(c3nn4c(=O)cc(C)nc4s3)C2)cc1OC (configuration not stated),"0.00794 µM [falling, full curve, poor fit]"
18,CN(c1cccc(NC(=O)Cc2ccccc2)c1)S(C)(=O)=O,"3.16 µM [falling, partial curve]"
19,Nc1[nH]nc2nc(N3CCCC3)nc(-c3ccccc3)c12,"12.6 µM [rising, partial curve]"
20,COc1ccccc1CCn1c(=O)c(-c2cccs2)nc2cncnc21,"10 µM [rising, partial curve]"
21,CC1=C(C(=O)OCc2ccccc2)C(c2ccco2)n2ncnc2N1 (configuration not stated),"2.51 µM [rising, full curve]"
22,CCCCN(CC)C(=O)CSc1cc(=O)n(C)c2ccccc12,"12.6 µM [rising, single point]"
23,FC(F)(F)c1ccccc1-c1ccc2ncnc(NCc3cccnc3)c2c1,"7.94 µM [rising, partial curve]"

row,SMILES,AC50
1,CCN(C1CCCCC1)S(=O)(=O)c1cn(C)c(=O)n(C)c1=O,"12.6 µM [rising, partial curve]"
2,Brc1ccc(-c2nnc3n2-c2ccccc2CC3)cc1,"12.6 µM [rising, single point]"
3,CN(C)/C=C/C(=O)c1nnn(C2CCCCC2)c1NC1CCCCC1,"25.1 µM [falling, single point]"
4,C=CCN=C(NC#N)SCC(=O)c1cccc(OC)c1,"10 µM [falling, partial curve]"
5,COc1ccc(CCNC(=O)C2CC(=O)N(c3ccc(F)cc3)C2)cc1OC (configuration not stated),"0.00316 µM [falling, full curve, poor fit]"
6,Cc1nn(-c2ccccn2)c2c1C(c1ccsc1)C1=C(CCCC1=O)N2 (configuration not stated),"3.16 µM [rising, full curve]"
7,COc1ccc(-n2nnnc2SCC(=O)Nc2nnc(C)s2)cc1OC,"12.6 µM [rising, partial curve]"
8,COC(=O)c1cc(=O)nc2sccn12,"25.1 µM [falling, single point]"
9,COc1ccc(-c2csc(NC(C)=O)n2)cc1OC,"20 µM [rising, single point]"
10,COc1ccc(Cl)cc1C(=O)n1nc(C)cc1C,"1.26 µM [falling, partial curve, poor fit]"
11,Cc1nc(NCCNC(=O)c2ccco2)c2c(C)c(C)sc2n1,"2 µM [rising, partial curve]"
12,CN1CCN(c2ncnc3ccc(-c4cccc(NS(C)(=O)=O)c4)cc23)CC1,"6.31 µM [rising, full curve]"
13,Cc1cc(C)nc(-n2nc(C)c(C3(O)C(=O)Nc4ccccc43)c2N)n1 (configuration not stated),"0.00316 µM [falling, full curve, poor fit]"
14,O=[n+]1c2c(n([O-])c3c1CCCC3)CCCC2,"0.00794 µM [falling, full curve, poor fit]"
15,O=C(CCCCCNc1nc(=S)[nH]c2ccccc12)N1CCN(c2ccccn2)CC1,"0.501 µM [falling, partial curve]"
16,Clc1cc(Cl)c(OCc2nc(-c3ccccn3)no2)cc1Cl,"15.8 µM [rising, single point]"
17,COc1cccc(C2CC(c3c(F)cccc3Cl)n3nc(N)nc3N2)c1 (configuration not stated),"0.0158 µM [falling, full curve, poor fit]"
18,O=C(O)C1CCCN1c1ncccn1 (configuration not stated),"0.398 µM [falling, partial curve]"
19,COc1cc2c(cc1OC)-c1cc(=Nc3c(C)cc(C)cc3C)n(C)c(=O)n1CC2,"2 µM [rising, full curve]"
20,N#CCCn1c(=O)c(-c2cccs2)nc2cnc(N3CCOCC3)nc21,"5.01 µM [rising, partial curve]"
21,Cn1c(CN2CCC(C(N)=O)CC2)c(C#N)c2ccccc21,"3.98 µM [falling, partial curve, poor fit]"
22,COc1ccc2[nH]cc(C(=O)CN3CCN(C(=O)c4ccco4)CC3)c2c1,"3.98 µM [falling, full curve, poor fit]"
23,CC(C)Cn1c(N)c(C(=O)NCC2CCCO2)c2nc3ccccc3nc21 (configuration not stated),"10 µM [rising, partial curve]"

row,SMILES,AC50
1,COc1ccc(-c2nc3cnc(Oc4ccccc4)nc3n(Cc3cccs3)c2=O)cc1,"3.98 µM [rising, full curve]"
2,Nc1nc(-c2ccco2)nc(N2CCCCC2)n1,"12.6 µM [rising, single point]"
3,COc1cccc(CN(Cc2cccnc2)S(=O)(=O)c2ccc(-n3cnnn3)c(C)c2)c1OC,"0.00316 µM [falling, full curve, poor fit]"
4,CCOC(=O)C1CCN(C(=O)C2CCN(S(=O)(=O)CC)CC2)CC1,"0.00398 µM [falling, full curve, poor fit]"
5,CC(C)(C)n1ncc2c(=O)n(CC(=O)OCc3ccccc3)cnc21,"25.1 µM [rising, single point]"
6,Cc1ccc(Cl)cc1N1CCN(C(=O)c2cc3c(=O)n(C)c4ccccc4c3n2C)CC1,"5.01 µM [falling, single point]"
7,N#CC1=C(N)S[C@H](C(=O)C23CC4CC(CC(C4)C2)C3)[C@H]1c1ccncc1,"0.158 µM [rising, full curve]"
8,O=C1[C@@H]2C(Cc3ccc(O)cc3)NC3(C(=O)Nc4ccc(F)cc43)[C@@H]2C(=O)N1c1ccccc1 (some centres not stated),"2.51 µM [falling, partial curve]"
9,Cn1c(=O)c2c(nc(N3CCCCC3)n2CCNC2=NCCC2)n(C)c1=O,"7.94 µM [falling, partial curve]"
10,CCOC(=O)N1CCN(C(=O)C(NC(=O)C2CCC(C)CC2)C(C)C)CC1 (configuration not stated),"0.398 µM [falling, partial curve]"
11,CCN(CC)C(=O)c1sc(NC(=O)c2ccoc2C)c(C(=O)OC)c1C,"12.6 µM [rising, partial curve]"
12,Cn1c(=O)c2c(nc(Br)n2CCSc2nnnn2-c2ccccc2)n(C)c1=O,"7.94 µM [rising, partial curve, poor fit]"
13,FC(F)(F)c1ccccc1-c1ccc2ncnc(NCCN3CCOCC3)c2c1,"7.94 µM [rising, partial curve]"
14,COc1ccc(-c2nc3cnc(Nc4cccc(OC)c4)nc3n(C3CC3)c2=O)cc1,"0.316 µM [rising, full curve]"
15,O=C(O)CCC(=O)c1ccc2ccc3cccc4ccc1c2c34,"5.01 µM [rising, single point]"
16,COc1cc2cc(C(c3nnnn3C3CCCCC3)N(C)C3CCCCC3)c(=O)[nH]c2cc1OC (configuration not stated),"10 µM [rising, partial curve]"
17,CCOC(=O)C1C(=O)NCC2CCCC21 (configuration not stated),"3.16 µM [rising, single point]"
18,CCOC(=O)c1sc2nc3n(c(=O)c2c1C)CCC(C)CC3 (configuration not stated),"0.2 µM [rising, full curve]"
19,COc1ccc(-c2cc(C(F)(F)F)nc(SCC(=O)N3CC(C)OC(C)C3)n2)cc1OC (configuration not stated),"0.631 µM [rising, partial curve]"
20,Cc1ccc(NC(=O)CN(C)c2ccc(S(=O)(=O)N3CCN(C)CC3)cn2)cc1,"5.01 µM [falling, single point]"
21,COc1ccc(-c2noc(CSc3nnc(CCc4ccccc4)n3-c3ccccc3)n2)cc1OC,"10 µM [rising, partial curve]"

# In the list so far, 16 contain a carbonyl joined to an NH by a bond outside any ring.
row,SMILES,AC50
4,CCn1c(=N)c(C(=O)NCc2cccnc2)cc2c(=O)n3cccc(C)c3nc21,"15.8 µM [rising, single point]"
7,CC1=Nc2ccccc2N=C(NC(=O)CSc2nnnn2-c2ccccc2)C1c1ccccc1 (configuration not stated),"12.6 µM [rising, partial curve, poor fit]"
8,COc1ccc(CN2CC(C(=O)NCCCN3CCOCC3)CC2=O)cc1 (configuration not stated),"25.1 µM [rising, single point]"
11,CCC(=O)Nc1ccccc1N1CCN(S(C)(=O)=O)CC1,"0.631 µM [rising, single point]"
14,Nc1c(C(=O)NCc2ccco2)nnn1Cc1ccccc1,"10 µM [falling, partial curve, poor fit]"
17,COc1ccc(CCNC(=O)C2CCCN(c3nn4c(=O)cc(C)nc4s3)C2)cc1OC (configuration not stated),"0.00794 µM [falling, full curve, poor fit]"
18,CN(c1cccc(NC(=O)Cc2ccccc2)c1)S(C)(=O)=O,"3.16 µM [falling, partial curve]"
5,COc1ccc(CCNC(=O)C2CC(=O)N(c3ccc(F)cc3)C2)cc1OC (configuration not stated),"0.00316 µM [falling, full curve, poor fit]"
7,COc1ccc(-n2nnnc2SCC(=O)Nc2nnc(C)s2)cc1OC,"12.6 µM [rising, partial curve]"
9,COc1ccc(-c2csc(NC(C)=O)n2)cc1OC,"20 µM [rising, single point]"
11,Cc1nc(NCCNC(=O)c2ccco2)c2c(C)c(C)sc2n1,"2 µM [rising, partial curve]"
21,Cn1c(CN2CCC(C(N)=O)CC2)c(C#N)c2ccccc21,"3.98 µM [falling, partial curve, poor fit]"
23,CC(C)Cn1c(N)c(C(=O)NCC2CCCO2)c2nc3ccccc3nc21 (configuration not stated),"10 µM [rising, partial curve]"
10,CCOC(=O)N1CCN(C(=O)C(NC(=O)C2CCC(C)CC2)C(C)C)CC1 (configuration not stated),"0.398 µM [falling, partial curve]"
11,CCN(CC)C(=O)c1sc(NC(=O)c2ccoc2C)c(C(=O)OC)c1C,"12.6 µM [rising, partial curve]"
20,Cc1ccc(NC(=O)CN(C)c2ccc(S(=O)(=O)N3CCN(C)CC3)cn2)cc1,"5.01 µM [falling, single point]"
